The list shows a part of the results.
tested on: T1, CTL2-GFP (C. trachomatis L2/434/Bu, GFP-expressing); set-up: species or system HeLa; Intracellular C. trachomatis growth in HeLa cells, bulk GFP fluorescence relative to DMSO; conditions: bulk GFP, single well; 28.5 h, 10 µM; inhibitor
T1 construct: L2/434/Bu, GFP-expressing

Row | Structure (SMILES) | % of control remaining [%]
1 | Cc1ccc2c(C)c(C(=O)Nc3ccc(S(N)(=O)=O)cc3)oc2c1 [CBK267661] | 103.352
2 | COc1ncccc1C(=O)N1CCc2ccccc21 [CBK200402] | 91.8561
3 | O=C(O)CC(Cc1ccccc1)C(=O)Nc1ccc(F)cc1 (stereo not shown) [CBK286841] | 121.252
4 | N#Cc1ccc(-c2cccs2)nc1SCC(=O)Nc1ccc([N+](=O)[O-])cc1 [CBK066850] | 125.232
5 | Cc1ncccc1-c1csc(C2CCCO2)n1 (stereo not shown) [CBK304121] | 96.3103
6 | CSc1ncc(Cl)c(C(=O)Nc2nnc(C)s2)n1 [CBK268920] | 117.332
7 | CC(C)Oc1ccc(C(=O)C2=C(O)C(=O)N(Cc3cccnc3)C2c2ccncc2)cc1 (stereo not shown) [CBK264920] | 100
8 | CCN(C(=O)Cn1c(C)cc(=O)c2ccccc21)C1CCOC(C)(C)C1 (stereo not shown) [CBK306797] | 124.318
9 | O=C(Nc1cccnc1)C1CCN(C(=O)OCc2ccccc2)CC1 [CBK083187] | 119.347
10 | O=C(c1cncnc1)N1CCCC2(CCN(C(=O)c3cc(F)c(F)cc3F)C2)C1 (stereo not shown) [CBK131564] | 71.7084
11 | CN1CCC(N(C)C(=O)Nc2ccc3c(c2)OCCO3)C1 (stereo not shown) [CBK156008] | 71.4127
12 | Cc1cc(C)n(CC(C)CNC(=O)Cc2csc(N3CCCC3=O)n2)n1 (stereo not shown) [CBK305624] | 76.1667
13 | C[C@]12CN(C(=O)c3ccccc3)C[C@H]1NC(=O)c1ccccc1C2=O [CBK281657] | 109.754
14 | CN(C)c1cccc(-c2cnc3[nH]c(=O)n(CCc4ccncc4)c3n2)c1 [CBK064628] | 170.818
15 | O=C1NCCNC(=O)C2(C/C=C/COc3ccccc31)CCN(C(=O)c1ccc3[nH]nnc3c1)CC2 [CBK292000] | 141.865
16 | CN(Cc1ccco1)C(=O)NC1CCCc2c1cnn2CCO (stereo not shown) [CBK306290] | 88.9058
17 | O=c1[nH]c2ccccc2nc1-c1ccccc1 [CBK016193] | 123.604
18 | Cc1c(C(=O)N2CCn3nc(CO)cc3C2)n(C)c2ccc(F)cc12 [CBK306552] | 81.0303
19 | Cc1csc(C(Cc2ccsc2)NC(=O)CCn2ccnc2)n1 (stereo not shown) [CBK285391] | 115.239
20 | Cn1ncc2c(=O)n(Cc3nc(C(C)(C)C)no3)cnc21 [CBK304906] | 66.8693
21 | CC(C)S(=O)(=O)N1CC2CCCC(O)(c3cccc(F)c3)C2C1 (stereo not shown) [CBK283109] | 84.4859
22 | CCC(C(=O)Nc1nccs1)N(C)Cc1n[nH]c2c1CCC2 (stereo not shown) [CBK307685] | 137.51
23 | O=C(CCN1CCN(CCO)CC1)Nc1cccc(Br)c1 [CBK058502] | 136.166
24 | COCc1cc(C[C@@H]2C[C@H](NS(C)(=O)=O)C2(C)C)no1 [CBK289252] | 110.874
25 | N#Cc1cccc(Nc2cncc(-c3cccc(N)c3)n2)c1 [CBK065319] | 166.016
26 | O=C(CSc1nc2ccccc2c2nc3ccccc3n12)Nc1ccc(Cl)cc1F [CBK268098] | 120.744
27 | Cc1cc(C)cc(-c2nnc(SCCC(=O)NC(N)=O)o2)c1 [CBK295164] | 125.806

Row | Structure (SMILES) | % of control remaining [%]
28 | CN(Cc1ccccc1)c1ncc(-c2ccc(N3CCOCC3)cc2)n2ccnc12 [CBK091275] | 143.721
29 | CN(C1=NS(=O)(=O)c2ccccc21)c1ccccc1C(=O)O [CBK287094] | 113.73
30 | O=C1CC(C(=O)Nc2ccc3c(c2)OCO3)n2c(nc3ccccc32)N1 (stereo not shown) [CBK270177] | 127.773
31 | CNCC(=O)N(CCc1cc(C(F)(F)F)cc(C(F)(F)F)c1)c1ccc2c(c1)OCO2 [CBK001038T] | 92.786
32 | C[C@H]1[C@@H]2[C@@H](O)C([C@H](C)C(=O)N3CCCCC3)CC[C@@]2(C)CC[C@@H]1NC(=O)C1CC1 (stereo partly shown) [CBK289446] | 114.479
33 | O=C(O)c1ccc(OC(=O)C2CCCC2)cc1 [CBK090156] | 115.688
34 | CSCCC(=O)N1CCC2(CCN(C(=O)c3cc(F)c(F)cc3F)C2)C1 (stereo not shown) [CBK131397] | 109.253
35 | Cc1cc(C)[n+]2c(n1)N(c1ccccc1)CC2 [CBK017327G] | 126.087
36 | O=C(Cn1c(NCCO)nc2ccccc21)C12CC3CC(CC(C3)C1)C2 [CBK262129B] | 100
37 | Cc1cccc(NC(=O)CSCc2ccc(Cl)s2)n1 [CBK297895] | 112.431
38 | COc1ccc(-c2nc(NC(=O)c3ccco3)cnc2-c2cccc(C)c2)cn1 [CBK036954] | 125.942
39 | CCOc1ccccc1C(=O)N1CCCCC1c1ncc(C(=O)Nc2ccccc2)c(C)n1 (stereo not shown) [CBK285840] | 118.253
40 | CCCCNC(=O)CCCN(CC)CCC1=CC2(CCCC2)c2ccccc21 [CBK013232] | 148.042
41 | C[C@H](NC(=O)N1CCC2(CC1)NCCc1c2[nH]c2ccc(Cl)cc12)c1ccccc1 [CBK047046] | 68.9274
42 | O=C(NCc1csc(-c2ccccc2)n1)c1ccccc1OC(F)F [CBK092332] | 113.114
43 | Nc1nnc(SCc2ccc(Br)cc2)s1 [CBK026356] | 121.624
44 | Cc1ccn(CCNC(=O)c2ccc3c(C)c(C)[nH]c3c2)n1 [CBK282519] | 175.242
45 | O=C(Nc1ncc(Cc2ccc(F)cc2)s1)c1ccc(-c2ccc(F)cc2)o1 [CBK300522] | 117.468
46 | Cc1sc2nc(SCC(=O)Nc3ccc(S(N)(=O)=O)cc3)n(-c3ccccc3)c(=O)c2c1C [CBK266600] | 114.269
47 | CN(CCc1ccccn1)Cc1cc(Br)cs1 [CBK021314] | 133.959
48 | FCCOc1cncc(Cl)n1 [CBK113553] | 104.329
49 | COc1cc(C)c(NC(=O)C(=S)NCc2ccco2)cc1C [CBK268582] | 135.029
50 | COc1cc(-c2cn3ccnc3c(N[C@@H]3CCN(Cc4ccccc4)C3)n2)cc(OC)c1OC [CBK037385] | 139.436
51 | N#Cc1ccccc1-c1ccc(CSc2cccs2)cc1 [CBK002638] | 95.5815
52 | COc1cccc(N2CC(C(=O)Nc3cccc(C(=O)O)c3)CC2=O)c1 (stereo not shown) [CBK286612] | 136.148
53 | c1nc(OCCN2CCOCC2)cc(N2CCCN(CCN3CCOCC3)CC2)n1 [CBK083647] | 133.239
54 | COc1c(C)cc(-c2nc(C)nc(C)c2C)cc1C [CBK307506] | 129.001

Single entries from the list:
Value for O=C1CC(C(=O)Nc2ccc3c(c2)OCO3)n2c(nc3ccccc32)N1 (stereo not shown) [CBK270177] under % of control remaining [%]: 127.773
Value for CC(C)S(=O)(=O)N1CC2CCCC(O)(c3cccc(F)c3)C2C1 (stereo not shown) [CBK283109] under % of control remaining [%]: 84.4859
Value for O=C(CCN1CCN(CCO)CC1)Nc1cccc(Br)c1 [CBK058502] under % of control remaining [%]: 136.166
Value for FCCOc1cncc(Cl)n1 [CBK113553] under % of control remaining [%]: 104.329

(further entries)

Row | Structure (SMILES) | % of control remaining [%]
55 | O=C(O)CCC(=O)N1N=C2C(=Cc3cccc([N+](=O)[O-])c3)CCCC2C1c1cccc([N+](=O)[O-])c1 (stereo not shown) [CBK296071] | 96.0527
56 | CCCCOc1ccc(C(=O)N/C(=C/c2ccco2)C(=O)Nc2cccc(C(=O)O)c2)cc1 [CBK300491] | 141.746
57 | CC(=O)NCCSc1ncccc1C(F)(F)F [CBK105296] | 131.283
58 | O=C(NCCN1CCCCC1)C1CC(=O)N(CCc2ccccc2)C1 (stereo not shown) [CBK305986] | 87.0591
59 | O=C(COc1ccc(F)cc1F)NNC(=S)NC1CCCCC1 [CBK266859] | 116.733
60 | Clc1ccccc1-c1nccnc1NCCc1c[nH]c2ccccc12 [CBK037337] | 98.5784
61 | COC(=O)c1ccc(N2C(=O)CC(N3CCC(n4c(=O)[nH]c5ccccc54)CC3)C2=O)cc1 (stereo not shown) [CBK268714] | 137.757
62 | COc1ccccc1N1CCN(C(=O)N(CCN)CCC(C)c2ccccc2)CC1 (stereo not shown) [CBK002137C] | 127.581
63 | CNC(=O)C1(Cc2cccc(-c3cccs3)c2)CCN(C(=O)c2ccccc2)CC1 [CBK285720] | 113.386
64 | Cc1ncccc1-c1cc2cccnc2n1CCCNC(=O)C1CC1C (stereo not shown) [CBK282688] | 118.001
65 | Cc1ccc2[nH]c(-c3cccc(NC(=O)c4ccc(-n5cnnc5)cc4)c3)nc2c1 [CBK285839] | 115.656
66 | Cc1ccc(Nc2nc(N)nc(-c3cc4ccccc4o3)n2)cc1 [CBK288222] | 83.8358
67 | O=C1CC[C@@H](NCc2cccnc2)[C@H](c2cc(F)cc(F)c2)N1 [CBK283130] | 133.715
68 | O=C(O)c1ccccc1C(=O)N1CCC2(CC1)OCCc1c2[nH]c2ccccc12 [CBK046981] | 110.323
69 | CCCCC(=O)N(C)c1c(C)nc2ccc(C(=O)NCc3cccs3)cn12 [CBK147073] | 109.992
70 | O=C(O)C(Nc1nc(C(F)(F)F)nc2ccccc12)c1ccccc1 (stereo not shown) [CBK269570] | 76.251
71 | Cc1[nH]n(-c2nc3ccccc3o2)c(=O)c1Cc1c(Cl)cccc1Cl [CBK085382] | 62.6591
72 | COC(=O)c1sccc1NS(=O)(=O)c1cc(F)c(Br)cc1F [CBK004492] | 100.606
73 | Nc1nc2ccccc2n1CCOc1ccc(Cl)cc1 [CBK087352] | 156.325
74 | O=C(COc1ccc(S(=O)(=O)N2CCCCC2)cc1)NCc1cccnc1 [CBK268328] | 144.762
75 | Cc1c(Cl)cccc1NC(=O)C(=O)NCCCN1CCOCC1 [CBK263276] | 91.2014
76 | S=C(NCc1ccc(Cl)c(Cl)c1)Nc1ccncc1 [CBK016649] | 124.579
77 | NC(CSC12CC3CC(CC(C3)C1)C2)C(=O)O (stereo not shown) [CBK287219] | 115.749
78 | Cc1cc(C)n(-c2cc(C)c3ccccc3n2)n1 [CBK262358] | 148.41
79 | c1ccc2c(c1)CCCN2Cc1nc2ccccc2[nH]1 [CBK138329] | 135.034

Source: article PMC12040169 (PLOS Biology, 2025)
